Test results published in paper PMC7658486.
Results are given in words; binding and its absence hold for the method and conditions named. Some entries that bind do so weakly or less than the wild type. Sequences can lack the tags named with a protein.

B1: bovine IL-2, FLAG-tagged (ligand, UniProt P05016 21-155)
chain: APTSSSTGNTMKEVKSLLLDLQLLLEKVKNPENLKLSRMHTFDFYVPKVNATELKHLKCLLEELKLLEEVLNLAPSKNLNPREIKDSMDNIKRIVLELQGSETRFTCEYDDATVNAVEFLNKWITFCQSIYSTMT
B2: bovine IL-15, FLAG-tagged (ligand, UniProt Q28028 49-162)
chain: NWQYVINDLKTIEHLIQSIHMDATLYTESDAHPNCKVTAMQCFLLELRVILHESKNATIYEIIENLTMLANSNLSSIENKTELGCKECEELEEKSIKEFLKSFVHIVQMFINTS

Target: T1, bovine (full-length) IL-2Rα (cattle (Bos taurus)) (UniProt P12342)
T1 sequence: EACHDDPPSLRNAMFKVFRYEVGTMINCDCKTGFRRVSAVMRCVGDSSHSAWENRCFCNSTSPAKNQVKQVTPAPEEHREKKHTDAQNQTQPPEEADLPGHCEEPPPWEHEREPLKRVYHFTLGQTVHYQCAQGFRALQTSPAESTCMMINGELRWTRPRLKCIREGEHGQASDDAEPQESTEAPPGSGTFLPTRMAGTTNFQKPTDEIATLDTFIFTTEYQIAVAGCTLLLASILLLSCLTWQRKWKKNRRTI
Assay: flow cytometry on cells; live HEK293T cells co-transfected for a FLAG-tagged cytokine and a full-length (transmembrane) receptor alpha chain; two days after transfection stained with anti-FLAG M2 mAb; cytokine considered bound if the percentage of anti-FLAG-labeled cells was higher than in cells transfected for the cytokine alone

binding | Binder
binds | B1
no binding | B2
